Data: the supplement of paper PMC10849652
The list shows a part of the results.

Chains of the proteins cited; added tags and fusions are not shown. Lines headed by an entry give the natural chain unless they say otherwise; changes in a name come on top.
UniProt P26572: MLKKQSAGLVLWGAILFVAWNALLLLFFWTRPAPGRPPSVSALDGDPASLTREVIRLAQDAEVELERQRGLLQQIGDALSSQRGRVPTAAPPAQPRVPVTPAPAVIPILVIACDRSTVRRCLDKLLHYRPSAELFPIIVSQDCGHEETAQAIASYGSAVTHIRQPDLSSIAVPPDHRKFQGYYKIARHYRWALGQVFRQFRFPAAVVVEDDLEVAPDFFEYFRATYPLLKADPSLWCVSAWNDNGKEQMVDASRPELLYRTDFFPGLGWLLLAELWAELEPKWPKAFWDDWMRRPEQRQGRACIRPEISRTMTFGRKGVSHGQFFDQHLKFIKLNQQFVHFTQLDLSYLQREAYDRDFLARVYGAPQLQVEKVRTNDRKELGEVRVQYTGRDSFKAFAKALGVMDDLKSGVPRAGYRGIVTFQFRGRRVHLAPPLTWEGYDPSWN
UniProt Q8IY33: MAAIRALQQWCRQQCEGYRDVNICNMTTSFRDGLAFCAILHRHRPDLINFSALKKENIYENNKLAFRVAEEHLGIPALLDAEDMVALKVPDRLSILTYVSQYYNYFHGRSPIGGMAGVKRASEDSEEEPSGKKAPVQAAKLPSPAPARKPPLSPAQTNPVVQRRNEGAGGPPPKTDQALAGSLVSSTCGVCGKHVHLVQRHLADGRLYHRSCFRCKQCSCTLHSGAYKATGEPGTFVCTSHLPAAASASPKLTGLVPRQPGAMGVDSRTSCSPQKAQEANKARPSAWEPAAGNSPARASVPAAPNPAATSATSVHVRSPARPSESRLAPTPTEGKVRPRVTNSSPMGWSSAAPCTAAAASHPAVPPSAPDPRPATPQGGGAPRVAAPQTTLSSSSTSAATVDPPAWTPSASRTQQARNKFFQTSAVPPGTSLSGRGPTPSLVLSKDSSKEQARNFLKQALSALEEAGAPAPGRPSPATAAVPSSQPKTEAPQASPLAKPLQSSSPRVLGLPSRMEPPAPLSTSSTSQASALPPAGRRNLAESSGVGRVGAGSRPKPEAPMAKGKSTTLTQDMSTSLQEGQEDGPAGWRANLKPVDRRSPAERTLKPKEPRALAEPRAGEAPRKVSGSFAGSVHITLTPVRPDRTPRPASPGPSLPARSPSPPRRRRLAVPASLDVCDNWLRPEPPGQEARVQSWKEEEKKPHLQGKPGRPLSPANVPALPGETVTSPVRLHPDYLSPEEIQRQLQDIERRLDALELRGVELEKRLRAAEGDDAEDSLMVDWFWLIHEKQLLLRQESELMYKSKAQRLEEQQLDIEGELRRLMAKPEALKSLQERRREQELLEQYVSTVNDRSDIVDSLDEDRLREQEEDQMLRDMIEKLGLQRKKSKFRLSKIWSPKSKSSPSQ
UniProt Q99547: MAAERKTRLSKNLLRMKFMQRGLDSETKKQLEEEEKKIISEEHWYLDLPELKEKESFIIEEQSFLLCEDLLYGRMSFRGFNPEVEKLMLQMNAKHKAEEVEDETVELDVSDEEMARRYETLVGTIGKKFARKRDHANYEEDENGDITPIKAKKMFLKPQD
UniProt P50219: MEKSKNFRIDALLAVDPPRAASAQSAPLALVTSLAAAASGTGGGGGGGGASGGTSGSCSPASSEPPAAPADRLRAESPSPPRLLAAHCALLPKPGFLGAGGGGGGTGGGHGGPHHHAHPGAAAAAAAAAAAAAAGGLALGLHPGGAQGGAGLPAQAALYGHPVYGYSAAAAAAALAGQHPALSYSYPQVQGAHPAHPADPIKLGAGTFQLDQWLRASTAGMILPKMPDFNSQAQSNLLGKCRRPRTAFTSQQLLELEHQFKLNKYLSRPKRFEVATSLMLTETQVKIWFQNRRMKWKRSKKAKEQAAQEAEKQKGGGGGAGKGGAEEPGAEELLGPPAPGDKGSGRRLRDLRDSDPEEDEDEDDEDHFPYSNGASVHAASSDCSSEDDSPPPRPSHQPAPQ
UniProt Q15773: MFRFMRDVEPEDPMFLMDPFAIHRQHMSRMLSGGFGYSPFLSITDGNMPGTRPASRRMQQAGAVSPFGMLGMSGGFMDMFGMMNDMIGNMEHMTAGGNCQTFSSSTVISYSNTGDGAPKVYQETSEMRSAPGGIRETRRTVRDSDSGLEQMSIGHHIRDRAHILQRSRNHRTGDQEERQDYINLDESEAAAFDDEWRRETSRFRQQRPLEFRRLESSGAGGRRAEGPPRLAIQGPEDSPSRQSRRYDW
UniProt Q7Z3K6: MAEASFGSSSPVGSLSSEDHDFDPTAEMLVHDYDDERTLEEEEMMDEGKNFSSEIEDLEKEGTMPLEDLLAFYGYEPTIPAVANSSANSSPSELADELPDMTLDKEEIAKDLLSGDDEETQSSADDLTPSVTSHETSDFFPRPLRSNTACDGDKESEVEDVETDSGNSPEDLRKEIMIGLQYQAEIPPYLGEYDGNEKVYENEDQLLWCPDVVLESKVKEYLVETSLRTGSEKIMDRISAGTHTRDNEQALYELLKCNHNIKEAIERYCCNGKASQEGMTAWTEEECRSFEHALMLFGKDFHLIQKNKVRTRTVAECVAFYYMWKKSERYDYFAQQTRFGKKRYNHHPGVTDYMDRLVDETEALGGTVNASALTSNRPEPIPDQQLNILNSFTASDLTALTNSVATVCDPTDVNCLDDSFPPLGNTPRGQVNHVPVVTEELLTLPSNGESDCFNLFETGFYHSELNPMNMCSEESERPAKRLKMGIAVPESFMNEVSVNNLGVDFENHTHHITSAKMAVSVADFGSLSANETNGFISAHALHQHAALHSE
UniProt Q8N108: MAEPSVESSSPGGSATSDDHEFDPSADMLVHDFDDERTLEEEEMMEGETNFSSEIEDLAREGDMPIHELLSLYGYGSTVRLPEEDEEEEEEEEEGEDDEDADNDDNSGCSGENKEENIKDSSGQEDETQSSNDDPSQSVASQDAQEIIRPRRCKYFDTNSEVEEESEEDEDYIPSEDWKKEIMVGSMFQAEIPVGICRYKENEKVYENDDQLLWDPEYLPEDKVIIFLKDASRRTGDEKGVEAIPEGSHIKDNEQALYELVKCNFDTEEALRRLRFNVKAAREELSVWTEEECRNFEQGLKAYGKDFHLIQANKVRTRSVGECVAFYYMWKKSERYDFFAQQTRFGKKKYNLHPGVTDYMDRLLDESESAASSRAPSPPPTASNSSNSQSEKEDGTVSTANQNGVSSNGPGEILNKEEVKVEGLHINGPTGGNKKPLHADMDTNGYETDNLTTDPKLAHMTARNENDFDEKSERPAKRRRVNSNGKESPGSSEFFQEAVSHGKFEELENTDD
UniProt Q6IN84: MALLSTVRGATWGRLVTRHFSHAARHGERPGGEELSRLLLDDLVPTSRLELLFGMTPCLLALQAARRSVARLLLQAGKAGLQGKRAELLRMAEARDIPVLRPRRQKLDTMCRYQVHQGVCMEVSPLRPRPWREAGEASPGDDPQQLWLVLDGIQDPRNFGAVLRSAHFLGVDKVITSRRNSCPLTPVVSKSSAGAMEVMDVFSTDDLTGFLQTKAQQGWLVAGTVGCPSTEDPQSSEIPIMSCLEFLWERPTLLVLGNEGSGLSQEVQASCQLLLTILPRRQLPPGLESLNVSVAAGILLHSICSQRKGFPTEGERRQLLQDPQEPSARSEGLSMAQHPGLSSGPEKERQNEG
UniProt Q9NYP9: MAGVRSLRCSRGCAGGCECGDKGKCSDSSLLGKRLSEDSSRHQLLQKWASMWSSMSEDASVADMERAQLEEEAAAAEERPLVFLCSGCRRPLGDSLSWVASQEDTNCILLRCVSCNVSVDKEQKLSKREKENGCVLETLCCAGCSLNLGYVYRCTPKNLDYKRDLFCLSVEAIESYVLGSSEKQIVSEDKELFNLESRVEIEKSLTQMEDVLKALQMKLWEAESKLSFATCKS

Experiments:
Test in all cases: log2 fold change, soluble protein after heating vs DMSO (PISA); higher = thermal stabilisation; K562 lysate, 10 uM; active = over 0.2 and 3.5 SD of the protein, either way, in both replicates (recomputed)
alvocidib = compound: CN1CC[C@H](c2c(O)cc(O)c3c(=O)cc(-c4ccccc4Cl)oc23)[C@H](O)C1 [alvocidib]
Procedure, shortened: (§1)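 Values give the log-two fold change in thermal stability against solvent controls, from duplicates. Crude K562 extract at 1 mg/mL protein, made by dounce homogenisation in PBS pH 7.4 with 1 mM MgCl2, was treated with 10 μM compound for 30 min. After 3 min heating across 48°C-58°C, aliquots were pooled, adjusted to 0.5% NP-40 at 4°C and centrifuged at 21,000xg for 90 min. The supernatant was measured by TMTpro 16plex LC-MS/MS with channel sums equalised.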

Tubastatin A = compound: CN1CCc2c(c3ccccc3n2Cc2ccc(C(=O)NO)cc2)C1 [Tubastatin A]
Procedure, shortened: as §1

[1] = compound: CNC(=O)C1=CC=CC=C1NC2=NC(=NC=C2Cl)NC3=C(C=C(C=C3)N4CCOCC4)OC
Procedure, shortened: as §1

defactinib = compound: CNC(=O)c1ccc(Nc2ncc(C(F)(F)F)c(NCc3nccnc3N(C)S(C)(=O)=O)n2)cc1 [defactinib]
Procedure, shortened: as §1

[2] = compound: CNc1nc(-c2ccc3c(N)n[nH]c3c2)cc(N2C[C@@H](C(=O)NC3CCCCC3)CC[C@H]2C)n1
Procedure, shortened: as §1

encorafenib = compound: COC(=O)N[C@@H](C)CNc1nccc(-c2cn(C(C)C)nc2-c2cc(Cl)cc(NS(C)(=O)=O)c2F)n1 [encorafenib]
Procedure, shortened: as §1

[3] = compound: COC(=O)[C@H](CCSC)NC(=O)C1=C(C=C(C=C1)NC[C@H](CS)N)C2=CC=CC=C2
Procedure, shortened: as §1

alisertib = compound: COc1cc(Nc2ncc3c(n2)-c2ccc(Cl)cc2C(c2c(F)cccc2OC)=NC3)ccc1C(=O)O [alisertib]
Procedure, shortened: as §1

[4] = compound: COc1cc2nc(-c3cc(F)ccc3O)nc(N[C@@H]3CNC[C@H]3C(C)(C)O)c2cc1OC
Procedure, shortened: as §1

gefitinib = compound: COc1cc2ncnc(Nc3ccc(F)c(Cl)c3)c2cc1OCCCN1CCOCC1 [gefitinib]
Procedure, shortened: as §1

lapatinib = compound: CS(=O)(=O)CCNCc1ccc(-c2ccc3ncnc(Nc4ccc(OCc5cccc(F)c5)c(Cl)c4)c3c2)o1 [lapatinib]
Procedure, shortened: as §1

crizotinib = compound: C[C@@H](Oc1cc(-c2cnn(C3CCNCC3)c2)cnc1N)c1c(Cl)ccc(F)c1Cl [crizotinib]
Procedure, shortened: as §1

[5] = compound: C[C@H](C1=CC=C(C=C1)C(=O)NC2=C3C=CNC3=NC=C2)N
Procedure, shortened: as §1

duvelisib = compound: C[C@H](Nc1ncnc2nc[nH]c12)c1cc2cccc(Cl)c2c(=O)n1-c1ccccc1 [duvelisib]
Procedure, shortened: as §1

gandotinib = compound: Cc1cc(Nc2cc(CN3CCOCC3)c3nc(C)c(Cc4ccc(Cl)cc4F)n3n2)n[nH]1 [gandotinib]
Procedure, shortened: as §1

tozasertib = compound: Cc1cc(Nc2cc(N3CCN(C)CC3)nc(Sc3ccc(NC(=O)C4CC4)cc3)n2)n[nH]1 [tozasertib]
Procedure, shortened: as §1

doramapimod = compound: Cc1ccc(-n2nc(C(C)(C)C)cc2NC(=O)Nc2ccc(OCCN3CCOCC3)c3ccccc23)cc1 [doramapimod]
Procedure, shortened: as §1

[6] = compound: Cc1cccc(CC(=O)N2CCc3c2ccc(-c2cn(C)c4ncnc(N)c24)c3F)n1
Procedure, shortened: as §1

pictilisib = compound: CS(=O)(=O)N1CCN(Cc2cc3nc(-c4cccc5[nH]ncc45)nc(N4CCOCC4)c3s2)CC1 [pictilisib]
Procedure, shortened: as §1

bafetinib = compound: Cc1ccc(NC(=O)c2ccc(CN3CC[C@H](N(C)C)C3)c(C(F)(F)F)c2)cc1Nc1nccc(-c2cncnc2)n1 [bafetinib]
Procedure, shortened: as §1

Measured: log2 fold change

MGAT1 (UniProt P26572)
inactive: alvocidib -0.044 | Tubastatin A 0.025 | [1] -0.068 | defactinib 0.058 | [2] -0.224 | encorafenib 0.011 | [3] 0.081 | alisertib 0.049 | [4] -0.079 | gefitinib -0.028 | lapatinib 0.058 | crizotinib -0.073 | [5] -0.101 | duvelisib -0.039 | gandotinib 0.043 | tozasertib -0.177 | doramapimod 0.005 | [6] 0.031

MRPL23 (UniProt Q16540)
inactive: alvocidib 0.043 | Tubastatin A -0.031 | [1] -0.058 | defactinib 0.037 | [2] 0.077 | encorafenib -0.029 | [3] 0.057 | alisertib 0.01 | [4] 0.004 | gefitinib 0.07 | lapatinib 0.009 | pictilisib -0.048 | crizotinib -0.055 | [5] -0.006 | duvelisib 0.036 | gandotinib -0.082 | tozasertib -0.153 | doramapimod 0.037 | bafetinib -0.079 | [6] -0.023

MICALL2 (UniProt Q8IY33)
inactive: alvocidib -0.011 | Tubastatin A -0.001 | [1] 0.055 | defactinib -0.024 | [2] 0.01 | encorafenib 0.026 | [3] -0.069 | alisertib -0.03 | [4] 0.024 | gefitinib 0.037 | lapatinib 0.027 | pictilisib -0.001 | crizotinib -0.006 | [5] 0.002 | duvelisib -0.011 | gandotinib 0.038 | tozasertib -0.014 | doramapimod 0.02 | bafetinib -0.082 | [6] -0.014

MPHOSPH6 (UniProt Q99547)
inactive: alvocidib 0.039 | Tubastatin A 0.014 | [1] -0.014 | defactinib 0.02 | [2] 0.042 | encorafenib 0.021 | [3] -0.026 | alisertib 0.035 | [4] 0.003 | gefitinib 0.004 | lapatinib -0.023 | pictilisib 0.018 | crizotinib 0.025 | [5] 0.018 | duvelisib 0.03 | gandotinib -0.039 | tozasertib 0.032 | doramapimod 0.024 | bafetinib -0.067 | [6] 0.019

MNX1 (UniProt P50219)
inactive: alvocidib -0.023 | Tubastatin A 0 | [1] 0.06 | defactinib 0.067 | [2] -0.071 | encorafenib 0.134 | [3] -0.059 | [4] 0.16 | lapatinib 0.051 | pictilisib 0.259 | crizotinib -0.016 | [5] -0.247 | duvelisib 0.008 | gandotinib -0.077 | tozasertib -0.017 | doramapimod -0.007 | bafetinib 0 | [6] 0.014

MRPL17 (UniProt Q9NRX2)
inactive: alvocidib 0.007 | Tubastatin A -0.049 | [1] -0.024 | defactinib -0.049 | [2] -0.009 | encorafenib -0.017 | [3] -0.07 | alisertib 0.067 | [4] 0.053 | gefitinib 0.029 | lapatinib 0.016 | pictilisib -0.022 | crizotinib -0.011 | [5] 0.001 | duvelisib -0.02 | gandotinib -0.039 | tozasertib 0.05 | doramapimod 0.041 | bafetinib 0.018 | [6] -0.013

MLF2 (UniProt Q15773)
inactive: alvocidib 0 | Tubastatin A -0.002 | [1] 0.033 | defactinib 0.038 | [2] -0.001 | encorafenib -0.07 | [3] -0.001 | alisertib -0.011 | gefitinib -0.093 | pictilisib -0.024 | crizotinib 0.042 | [5] 0.038 | duvelisib -0.111 | gandotinib -0.002 | tozasertib -0.085 | doramapimod 0 | bafetinib 0.141 | [6] -0.017

MIER3 isoform 2 (UniProt Q7Z3K6)
inactive: alvocidib -0.048 | Tubastatin A -0.119 | [1] 0.012 | defactinib 0.006 | [2] -0.022 | encorafenib 0.057 | [3] 0.079 | alisertib -0.143 | gefitinib -0.022 | pictilisib 0.097 | crizotinib -0.066 | [5] -0.008 | duvelisib 0.023 | gandotinib -0.12 | tozasertib 0.064 | doramapimod 0.14 | bafetinib -0.013 | [6] 0.093

MIER1 isoform 12 (UniProt Q8N108)
inactive: alvocidib -0.011 | Tubastatin A -0.018 | [1] -0.021 | defactinib -0.014 | [2] 0.007 | encorafenib -0.007 | [3] 0.024 | alisertib -0.02 | [4] 0.006 | gefitinib -0.04 | lapatinib 0.019 | pictilisib 0.019 | crizotinib 0.006 | [5] -0.009 | duvelisib 0.027 | gandotinib 0.009 | tozasertib 0.001 | doramapimod -0.002 | bafetinib -0.013 | [6] 0.004

MRM1 (UniProt Q6IN84)
inactive: alvocidib -0.021 | Tubastatin A 0.074 | [1] -0.003 | defactinib -0.007 | [2] 0.189 | encorafenib 0.041 | [3] 0.056 | alisertib -0.003 | [4] 0.105 | gefitinib 0.052 | lapatinib -0.112 | pictilisib -0.002 | crizotinib -0.022 | [5] 0.007 | duvelisib 0.012 | gandotinib -0.019 | tozasertib 0 | doramapimod 0.016 | bafetinib -0.002 | [6] 0.048

MIS18A (UniProt Q9NYP9)
inactive: alvocidib 0.064 | Tubastatin A -0.001 | [1] 0.045 | defactinib -0.008 | [2] 0.015 | encorafenib 0.015 | [3] -0.035 | alisertib -0.015 | [4] -0.019 | gefitinib 0.026 | lapatinib 0 | pictilisib 0.03 | crizotinib 0.069 | [5] 0.175 | duvelisib 0.015 | gandotinib -0.074 | tozasertib 0.055 | doramapimod 0.028 | bafetinib -0.052 | [6] -0.121
